Measurements published in article PMC10835191.
No constants are given. Whether binding was seen depends on the method and setting. In cells and extracts the contact can be indirect. Some results given as binding are weak or reduced against the parent protein; the word gives no strength. Each block holds one molecule with its values, some of them ahead of it.

Protein sequences, listed by entry. Tags and fused reporters are not part of them.
UniProt Q92841: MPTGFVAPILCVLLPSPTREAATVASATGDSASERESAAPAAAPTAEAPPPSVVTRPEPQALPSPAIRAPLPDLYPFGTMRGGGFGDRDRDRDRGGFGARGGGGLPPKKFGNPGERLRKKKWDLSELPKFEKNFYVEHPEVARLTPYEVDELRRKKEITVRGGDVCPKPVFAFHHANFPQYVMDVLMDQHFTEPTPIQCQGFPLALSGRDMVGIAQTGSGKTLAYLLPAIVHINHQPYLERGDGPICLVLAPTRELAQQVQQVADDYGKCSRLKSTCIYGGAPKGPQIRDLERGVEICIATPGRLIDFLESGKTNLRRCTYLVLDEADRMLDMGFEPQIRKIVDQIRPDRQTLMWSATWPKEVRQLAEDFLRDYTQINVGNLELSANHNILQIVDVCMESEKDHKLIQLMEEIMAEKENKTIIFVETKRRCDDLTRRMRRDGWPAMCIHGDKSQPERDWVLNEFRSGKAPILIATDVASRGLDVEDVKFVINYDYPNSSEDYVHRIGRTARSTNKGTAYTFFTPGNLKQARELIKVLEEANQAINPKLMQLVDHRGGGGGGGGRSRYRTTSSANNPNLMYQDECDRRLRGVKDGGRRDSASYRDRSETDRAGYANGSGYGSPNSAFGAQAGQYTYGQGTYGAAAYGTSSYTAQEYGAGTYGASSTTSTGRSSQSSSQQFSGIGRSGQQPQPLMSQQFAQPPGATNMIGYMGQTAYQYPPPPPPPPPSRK
UniProt P17844: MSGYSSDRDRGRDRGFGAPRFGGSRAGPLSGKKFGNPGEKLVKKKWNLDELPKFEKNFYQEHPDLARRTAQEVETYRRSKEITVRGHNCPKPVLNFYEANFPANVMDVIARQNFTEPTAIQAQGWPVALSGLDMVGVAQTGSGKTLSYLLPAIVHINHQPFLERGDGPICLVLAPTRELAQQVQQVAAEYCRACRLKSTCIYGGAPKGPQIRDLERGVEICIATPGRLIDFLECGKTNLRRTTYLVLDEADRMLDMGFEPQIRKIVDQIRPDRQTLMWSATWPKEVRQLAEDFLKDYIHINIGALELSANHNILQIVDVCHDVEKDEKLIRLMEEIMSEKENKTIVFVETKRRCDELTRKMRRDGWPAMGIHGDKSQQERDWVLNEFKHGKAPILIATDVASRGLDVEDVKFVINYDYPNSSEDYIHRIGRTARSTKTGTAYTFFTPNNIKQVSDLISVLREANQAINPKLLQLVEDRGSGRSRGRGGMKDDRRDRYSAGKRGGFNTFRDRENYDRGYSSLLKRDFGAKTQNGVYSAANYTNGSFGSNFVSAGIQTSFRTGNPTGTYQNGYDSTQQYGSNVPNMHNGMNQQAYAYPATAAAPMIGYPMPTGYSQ

Target: DEAD-Box Helicase 17 (DDX17) (UniProt Q92841)
Assay: co-IP; 293T cells lysed in IP-lysis buffer (P0013; Beyotime) with protease inhibitor cocktail; standard protocol; bait and antibodies not told in the main text

binding: binds
Molecule: DEAD-Box Helicase 5 (DDX5) (from UniProt P17844 1-614)

binding: binds
B1: CCCTC binding factor (CTCF) (protein, UniProt P49711 1-727)
chain: MEGDAVEAIVEESETFIKGKERKTYQRRREGGQEEDACHLPQNQTDGGEVVQDVNSSVQMVMMEQLDPTLLQMKTEVMEGTVAPEAEAAVDDTQIITLQVVNMEEQPINIGELQLVQVPVPVTVPVATTSVEELQGAYENEVSKEGLAESEPMICHTLPLPEGFQVVKVGANGEVETLEQGELPPQEDPSWQKDPDYQPPAKKTKKTKKSKLRYTEEGKDVDVSVYDFEEEQQEGLLSEVNAEKVVGNMKPPKPTKIKKKGVKKTFQCELCSYTCPRRSNLDRHMKSHTDERPHKCHLCGRAFRTVTLLRNHLNTHTGTRPHKCPDCDMAFVTSGELVRHRRYKHTHEKPFKCSMCDYASVEVSKLKRHIRSHTGERPFQCSLCSYASRDTYKLKRHMRTHSGEKPYECYICHARFTQSGTMKMHILQKHTENVAKFHCPHCDTVIARKSDLGVHLRKQHSYIEQGKKCRYCDAVFHERYALIQHQKSHKNEKRFKCDQCDYACRQERHMIMHKRTHTGEKPYACSHCDKTFRQKQLLDMHFKRYHDPNFVPAAFVCSKCGKTFTRRNTMARHADNCAGPDGVEGENGGETKKSKRGRKRKMRSKKEDSSDSENAEPDLDDNEDEEEPAVEIEPEPEPQPVTPAPPPAKKRRGRPPGRTNQPKQNQPTAIIQVEDQNTGAIENIIVEVKKEPDAEPAEGEEEEAQPAATDAPNGDLTPEMILSMMDR
